These are yes or no findings as the source states them, for the method shown. Some entries that bind do so weakly or less than the wild type.
Molecular target: androgen receptor fragment AR2 (AS 325-918), C-terminus with the DNA and ligand binding domains (human) (UniProt P10275)
Assay: yeast two-hybrid system (beta-galactosidase positive clones)

Chains of the proteins cited; added tags and fusions are not shown. Lines headed by an entry give the natural chain unless they say otherwise; changes in a name come on top. Residues count along the entry.
UniProt P10275, residues 325-918: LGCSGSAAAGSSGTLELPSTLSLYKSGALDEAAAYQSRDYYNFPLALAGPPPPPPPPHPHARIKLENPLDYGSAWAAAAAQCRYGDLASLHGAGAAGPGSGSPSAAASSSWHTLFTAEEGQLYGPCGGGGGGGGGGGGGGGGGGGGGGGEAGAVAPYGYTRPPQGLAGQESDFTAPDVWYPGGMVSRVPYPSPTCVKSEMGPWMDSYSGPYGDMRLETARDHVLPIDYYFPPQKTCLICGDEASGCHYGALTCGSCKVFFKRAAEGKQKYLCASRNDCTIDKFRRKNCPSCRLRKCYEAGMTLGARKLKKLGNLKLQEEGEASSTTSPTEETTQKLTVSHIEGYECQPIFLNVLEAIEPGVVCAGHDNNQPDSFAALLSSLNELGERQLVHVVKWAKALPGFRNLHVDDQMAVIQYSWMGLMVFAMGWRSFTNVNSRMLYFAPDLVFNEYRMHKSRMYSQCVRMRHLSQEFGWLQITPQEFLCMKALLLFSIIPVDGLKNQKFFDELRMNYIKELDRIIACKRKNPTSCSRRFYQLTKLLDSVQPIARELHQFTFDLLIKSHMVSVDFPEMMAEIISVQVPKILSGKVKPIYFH
UniProt Q01844: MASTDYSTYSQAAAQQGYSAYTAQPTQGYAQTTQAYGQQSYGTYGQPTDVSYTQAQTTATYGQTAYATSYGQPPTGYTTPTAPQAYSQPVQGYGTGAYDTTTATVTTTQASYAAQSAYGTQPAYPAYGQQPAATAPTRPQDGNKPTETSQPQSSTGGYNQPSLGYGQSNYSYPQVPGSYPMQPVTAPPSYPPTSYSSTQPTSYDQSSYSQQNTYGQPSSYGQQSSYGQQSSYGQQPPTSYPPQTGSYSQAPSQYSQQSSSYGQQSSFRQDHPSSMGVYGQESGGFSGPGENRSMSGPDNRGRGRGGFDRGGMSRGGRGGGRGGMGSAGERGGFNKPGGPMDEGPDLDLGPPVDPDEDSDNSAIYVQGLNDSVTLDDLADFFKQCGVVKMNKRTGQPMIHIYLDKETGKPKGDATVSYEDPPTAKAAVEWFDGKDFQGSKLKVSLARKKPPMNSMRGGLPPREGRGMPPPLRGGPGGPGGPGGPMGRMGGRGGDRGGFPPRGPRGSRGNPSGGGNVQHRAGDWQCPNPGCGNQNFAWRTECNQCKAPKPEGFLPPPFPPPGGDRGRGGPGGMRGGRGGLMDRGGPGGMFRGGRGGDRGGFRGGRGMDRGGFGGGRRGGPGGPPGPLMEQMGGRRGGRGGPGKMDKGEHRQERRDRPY

- binding: binds
Substance: C-terminal part of human EWS (AS 319-656) (from UniProt Q01844 319-656)
